Measurements from article PMC3836728.
These are yes or no findings as the source states them, for the method shown. In cells and extracts the contact can be indirect. Here binding means that the protein was enriched with, or labelled near, the bait; the list need not be complete.

Amino acid sequences for entries named in this document (tags omitted). Residues count along the entry.
UniProt Q9QR71, residues 240-300: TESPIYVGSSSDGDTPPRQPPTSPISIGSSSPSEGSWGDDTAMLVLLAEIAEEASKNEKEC
UniProt Q13263: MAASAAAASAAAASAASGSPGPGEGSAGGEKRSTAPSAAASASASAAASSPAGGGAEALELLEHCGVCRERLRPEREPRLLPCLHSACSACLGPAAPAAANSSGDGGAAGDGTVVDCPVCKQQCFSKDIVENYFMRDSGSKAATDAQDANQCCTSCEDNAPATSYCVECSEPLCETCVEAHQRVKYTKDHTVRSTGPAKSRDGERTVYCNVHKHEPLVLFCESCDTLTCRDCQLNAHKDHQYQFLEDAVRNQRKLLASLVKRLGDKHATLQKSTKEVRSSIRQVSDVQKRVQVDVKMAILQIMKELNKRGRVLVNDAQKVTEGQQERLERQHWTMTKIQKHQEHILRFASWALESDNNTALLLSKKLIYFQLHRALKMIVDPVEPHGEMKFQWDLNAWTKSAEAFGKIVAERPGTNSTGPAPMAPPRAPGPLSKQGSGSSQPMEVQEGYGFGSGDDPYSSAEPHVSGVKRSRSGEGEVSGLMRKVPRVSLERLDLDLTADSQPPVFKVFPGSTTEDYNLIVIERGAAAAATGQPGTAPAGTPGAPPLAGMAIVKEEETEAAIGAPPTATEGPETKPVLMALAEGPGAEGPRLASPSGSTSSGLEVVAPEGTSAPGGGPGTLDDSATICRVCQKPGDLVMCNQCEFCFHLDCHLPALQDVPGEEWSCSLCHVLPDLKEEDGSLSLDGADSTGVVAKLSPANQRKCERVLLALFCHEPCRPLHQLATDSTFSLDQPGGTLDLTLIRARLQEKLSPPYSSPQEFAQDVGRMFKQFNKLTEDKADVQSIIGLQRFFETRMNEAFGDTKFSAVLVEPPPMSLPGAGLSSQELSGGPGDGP
UniProt P78527: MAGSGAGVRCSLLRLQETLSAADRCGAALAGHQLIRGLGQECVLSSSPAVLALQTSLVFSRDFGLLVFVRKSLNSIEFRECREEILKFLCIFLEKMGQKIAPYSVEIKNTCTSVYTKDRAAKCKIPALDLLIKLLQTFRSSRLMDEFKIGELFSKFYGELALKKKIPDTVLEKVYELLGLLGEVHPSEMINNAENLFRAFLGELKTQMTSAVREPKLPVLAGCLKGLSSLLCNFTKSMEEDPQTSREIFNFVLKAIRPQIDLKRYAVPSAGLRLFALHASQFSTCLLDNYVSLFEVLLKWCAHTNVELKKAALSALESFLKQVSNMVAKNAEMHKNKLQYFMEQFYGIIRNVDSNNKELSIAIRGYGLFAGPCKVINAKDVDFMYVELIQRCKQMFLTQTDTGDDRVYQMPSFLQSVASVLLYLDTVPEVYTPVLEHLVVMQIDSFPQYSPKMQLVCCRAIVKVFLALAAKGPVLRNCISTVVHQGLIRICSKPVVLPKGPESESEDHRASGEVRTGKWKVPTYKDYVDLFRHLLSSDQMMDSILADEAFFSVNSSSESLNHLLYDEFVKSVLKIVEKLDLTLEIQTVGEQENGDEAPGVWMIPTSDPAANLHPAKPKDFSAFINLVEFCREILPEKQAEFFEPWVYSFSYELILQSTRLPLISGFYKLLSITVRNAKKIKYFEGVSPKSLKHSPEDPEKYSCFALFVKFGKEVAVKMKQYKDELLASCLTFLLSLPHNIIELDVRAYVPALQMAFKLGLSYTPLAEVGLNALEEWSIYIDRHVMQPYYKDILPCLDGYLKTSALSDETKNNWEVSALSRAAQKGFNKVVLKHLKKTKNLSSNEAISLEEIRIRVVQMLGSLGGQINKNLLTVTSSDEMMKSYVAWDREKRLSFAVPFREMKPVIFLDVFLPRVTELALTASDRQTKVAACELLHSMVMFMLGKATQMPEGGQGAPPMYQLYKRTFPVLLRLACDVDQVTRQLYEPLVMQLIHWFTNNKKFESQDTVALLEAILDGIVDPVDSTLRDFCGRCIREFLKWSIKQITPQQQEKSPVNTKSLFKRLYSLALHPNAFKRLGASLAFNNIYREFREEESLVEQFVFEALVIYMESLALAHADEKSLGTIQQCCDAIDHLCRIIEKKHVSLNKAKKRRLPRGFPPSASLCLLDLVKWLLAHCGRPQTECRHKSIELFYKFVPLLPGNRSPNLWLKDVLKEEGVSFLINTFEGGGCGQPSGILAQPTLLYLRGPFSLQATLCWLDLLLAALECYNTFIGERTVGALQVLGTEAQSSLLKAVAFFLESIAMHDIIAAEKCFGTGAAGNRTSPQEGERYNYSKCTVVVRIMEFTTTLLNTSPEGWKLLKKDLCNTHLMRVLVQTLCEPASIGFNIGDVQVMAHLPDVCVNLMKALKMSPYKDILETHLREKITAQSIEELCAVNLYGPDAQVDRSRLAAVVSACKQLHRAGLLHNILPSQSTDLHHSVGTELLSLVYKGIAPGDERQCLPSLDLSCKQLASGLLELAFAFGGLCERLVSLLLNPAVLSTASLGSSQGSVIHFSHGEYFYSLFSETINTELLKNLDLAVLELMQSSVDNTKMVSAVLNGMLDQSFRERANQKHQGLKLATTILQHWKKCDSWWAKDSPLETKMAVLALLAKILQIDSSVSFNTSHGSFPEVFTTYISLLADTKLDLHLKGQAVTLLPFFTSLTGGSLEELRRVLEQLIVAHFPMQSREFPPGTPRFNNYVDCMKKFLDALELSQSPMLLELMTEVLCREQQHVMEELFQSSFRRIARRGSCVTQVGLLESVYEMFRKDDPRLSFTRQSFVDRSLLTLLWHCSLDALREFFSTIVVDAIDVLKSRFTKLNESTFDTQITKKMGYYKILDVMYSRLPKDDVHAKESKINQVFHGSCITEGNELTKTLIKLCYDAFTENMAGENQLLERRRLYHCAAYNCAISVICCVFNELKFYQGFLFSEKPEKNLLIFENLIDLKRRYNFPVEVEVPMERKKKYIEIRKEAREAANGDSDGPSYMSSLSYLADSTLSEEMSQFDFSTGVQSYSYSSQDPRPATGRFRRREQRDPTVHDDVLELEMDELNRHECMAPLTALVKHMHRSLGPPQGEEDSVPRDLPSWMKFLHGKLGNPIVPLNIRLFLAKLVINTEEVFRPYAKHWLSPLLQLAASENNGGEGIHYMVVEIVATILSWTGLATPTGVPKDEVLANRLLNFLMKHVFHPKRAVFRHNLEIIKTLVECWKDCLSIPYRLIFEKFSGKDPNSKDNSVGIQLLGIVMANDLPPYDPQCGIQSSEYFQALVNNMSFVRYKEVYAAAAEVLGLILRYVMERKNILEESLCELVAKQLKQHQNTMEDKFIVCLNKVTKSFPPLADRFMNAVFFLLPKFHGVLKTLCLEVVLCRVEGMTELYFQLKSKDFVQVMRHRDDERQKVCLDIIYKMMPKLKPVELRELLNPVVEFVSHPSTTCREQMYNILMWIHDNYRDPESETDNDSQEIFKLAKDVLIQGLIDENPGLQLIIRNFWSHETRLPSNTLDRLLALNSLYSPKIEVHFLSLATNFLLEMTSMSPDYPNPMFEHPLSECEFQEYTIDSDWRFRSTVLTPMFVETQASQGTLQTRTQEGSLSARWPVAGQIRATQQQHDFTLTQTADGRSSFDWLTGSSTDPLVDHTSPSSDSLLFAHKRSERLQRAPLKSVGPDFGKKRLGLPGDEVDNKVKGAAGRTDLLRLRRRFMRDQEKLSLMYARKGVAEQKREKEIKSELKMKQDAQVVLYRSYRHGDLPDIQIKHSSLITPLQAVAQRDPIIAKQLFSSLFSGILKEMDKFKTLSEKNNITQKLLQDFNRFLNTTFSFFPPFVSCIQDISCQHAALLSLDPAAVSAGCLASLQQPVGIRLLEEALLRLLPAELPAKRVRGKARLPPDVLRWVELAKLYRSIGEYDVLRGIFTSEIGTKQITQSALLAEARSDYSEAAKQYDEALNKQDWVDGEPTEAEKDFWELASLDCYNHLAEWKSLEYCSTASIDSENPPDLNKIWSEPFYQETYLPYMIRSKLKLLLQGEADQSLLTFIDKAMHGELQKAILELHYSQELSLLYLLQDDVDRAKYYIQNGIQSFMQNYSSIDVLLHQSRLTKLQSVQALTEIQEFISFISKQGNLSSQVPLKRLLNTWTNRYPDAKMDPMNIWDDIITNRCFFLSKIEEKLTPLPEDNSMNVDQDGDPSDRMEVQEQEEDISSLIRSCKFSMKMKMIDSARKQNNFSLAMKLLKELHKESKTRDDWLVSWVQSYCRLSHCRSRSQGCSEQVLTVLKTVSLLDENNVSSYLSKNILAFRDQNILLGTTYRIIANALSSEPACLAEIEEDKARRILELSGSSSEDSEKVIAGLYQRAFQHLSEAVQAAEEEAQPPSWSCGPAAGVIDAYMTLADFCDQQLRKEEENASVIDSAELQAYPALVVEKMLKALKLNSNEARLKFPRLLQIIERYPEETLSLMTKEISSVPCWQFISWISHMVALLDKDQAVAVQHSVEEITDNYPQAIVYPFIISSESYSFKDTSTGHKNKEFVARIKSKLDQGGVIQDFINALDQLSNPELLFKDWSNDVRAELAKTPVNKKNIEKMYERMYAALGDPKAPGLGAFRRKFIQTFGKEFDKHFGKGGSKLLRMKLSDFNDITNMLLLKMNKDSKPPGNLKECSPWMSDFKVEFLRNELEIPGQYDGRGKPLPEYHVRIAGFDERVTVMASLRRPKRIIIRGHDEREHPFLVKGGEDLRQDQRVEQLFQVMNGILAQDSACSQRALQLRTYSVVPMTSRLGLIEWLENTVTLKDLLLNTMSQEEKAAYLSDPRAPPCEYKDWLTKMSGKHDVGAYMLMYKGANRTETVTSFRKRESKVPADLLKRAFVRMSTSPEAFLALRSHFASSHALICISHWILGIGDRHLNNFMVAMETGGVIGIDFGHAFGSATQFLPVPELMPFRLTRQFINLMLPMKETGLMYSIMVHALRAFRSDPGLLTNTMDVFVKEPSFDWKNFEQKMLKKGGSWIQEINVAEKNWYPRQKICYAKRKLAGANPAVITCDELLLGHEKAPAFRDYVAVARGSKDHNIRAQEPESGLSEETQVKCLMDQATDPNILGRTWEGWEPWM

Target: GST-SIM(240–300) (Kaposi's sarcoma-associated herpesvirus (KSHV)) (UniProt Q9QR71)
Test: affinity purification with mass spectrometry; GST-SIM(240–300) on beads with nuclear extracts from 293 cells expressing exogenous SUMO-2; bands b1-b4 cut from the gel and identified by mass spectrometry; only the target purified

Substance | binding
p300 (from UniProt Q09472 1-2414) | binds
KAP1 (also known as TIF1β or TRIM28) (from UniProt Q13263 1-835) | binds
DNA-PKc (from UniProt P78527 1-4128) | binds
CREB-binding protein (CBP) (from UniProt Q92793 1-2442) | binds
